PubChem BioAssay AID720551 (National Center for Advancing Translational Sciences (NCATS), 2013)
Values joined by “and” are separate entries in the source; they are usually repeats but may differ in a detail not shown here. Identical values can stand only once. In all, about 340,000 compounds went through this assay and about 1,300 (0.38%) were called active. Inconclusive means that the source gave no clear call. Such entries were picked first, then a sample of the others.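 How the source made its calls: active means maximum activity change below -70%; inconclusive means maximum activity change between -70% and -50%; inactive means maximum activity change above -50%.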

Amino acid sequences for entries named in this document (tags omitted).
UniProt Q12809, whole entry, looked up: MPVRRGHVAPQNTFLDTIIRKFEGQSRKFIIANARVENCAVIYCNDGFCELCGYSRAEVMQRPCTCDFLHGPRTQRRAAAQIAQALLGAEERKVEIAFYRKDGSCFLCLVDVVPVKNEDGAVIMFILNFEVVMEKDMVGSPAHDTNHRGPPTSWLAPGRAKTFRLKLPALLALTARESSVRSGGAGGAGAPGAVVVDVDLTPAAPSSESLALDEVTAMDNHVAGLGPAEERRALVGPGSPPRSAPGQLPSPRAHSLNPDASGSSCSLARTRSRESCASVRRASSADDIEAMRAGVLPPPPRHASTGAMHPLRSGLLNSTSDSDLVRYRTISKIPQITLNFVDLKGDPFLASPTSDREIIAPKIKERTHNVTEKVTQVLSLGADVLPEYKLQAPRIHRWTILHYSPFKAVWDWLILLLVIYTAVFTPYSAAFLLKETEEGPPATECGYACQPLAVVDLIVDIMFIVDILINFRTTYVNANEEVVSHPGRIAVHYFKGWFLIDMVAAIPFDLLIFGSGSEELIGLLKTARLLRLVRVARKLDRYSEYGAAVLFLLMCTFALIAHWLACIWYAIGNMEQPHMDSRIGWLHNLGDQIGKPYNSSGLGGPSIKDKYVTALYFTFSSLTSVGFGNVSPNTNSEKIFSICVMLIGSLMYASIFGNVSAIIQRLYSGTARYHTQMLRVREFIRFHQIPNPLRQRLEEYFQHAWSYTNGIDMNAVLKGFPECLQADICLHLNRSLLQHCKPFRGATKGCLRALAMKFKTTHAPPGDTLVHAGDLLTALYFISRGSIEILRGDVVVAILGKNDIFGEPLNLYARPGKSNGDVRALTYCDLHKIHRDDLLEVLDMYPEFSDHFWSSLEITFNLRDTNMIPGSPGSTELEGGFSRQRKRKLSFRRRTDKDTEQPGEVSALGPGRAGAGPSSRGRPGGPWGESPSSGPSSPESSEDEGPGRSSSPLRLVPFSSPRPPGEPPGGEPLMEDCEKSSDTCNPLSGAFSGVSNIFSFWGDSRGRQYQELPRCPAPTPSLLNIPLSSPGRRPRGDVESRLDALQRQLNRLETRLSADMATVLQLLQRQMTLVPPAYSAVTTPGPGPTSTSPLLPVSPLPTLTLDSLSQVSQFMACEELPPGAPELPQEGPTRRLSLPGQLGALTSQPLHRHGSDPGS

Target: Voltage-gated inwardly rectifying potassium channel KCNH2 (Homo sapiens) (UniProt Q12809)
Assay: qHTS for Inhibitors of KCHN2 3.1: Wildtype qHTS
Settings: U2OS, BacMam KCNH2, thallium flux FluxOr; at 1.84 µM, stronger effect = lower value
Summary of the method: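 U2OS cells were transduced with wild-type KCNH2 virus (2.03 x 10^8 / mL) for 4 h at room temperature, then cultured overnight at 37 C. Thallium flux was read with FluxOr dye. Rate constants were normalized to DMSO controls.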
On the % scale 0 is the no-effect control and ±100 the full control effect.

SMILES | activity change
O=C(CN1CCN(Cc2ccccc2)CC1)Nc1ccccc1-c1ccccc1 | active: -74.3%
CCOc1ccc(Br)cc1S(=O)(=O)Nc1cccc(S(=O)(=O)N2CCOCC2)c1 | active: -223%
CCOC(=O)C1=C(c2ccccc2)N=c2s/c(=C\c3cc(OC)c(OC)c(OC)c3)c(=O)n2C1c1cccs1 (stereo not given) | inconclusive: -57%
Nc1cc(Br)cc2c1[nH]c(=O)c1ccccc12 | inconclusive: -56.9%
CCCOC(=O)/C(C)=N\NC(=O)c1ccco1 | inconclusive: -54%
O=C(CCCCCn1c(=O)[nH]c2ccccc2c1=O)NCCCN1CCN(c2ccccc2F)CC1 | inconclusive: -55.1%
OC(CN1CCOCC1)CN(c1ccccc1)c1ccccc1 (stereo not given) | inactive: 7.89%
CC(CNC(=O)C(C)C)NC(=O)C(C)C (stereo not given) | inconclusive: -54.7%
C[C@H]1CCCCO[C@H](CN(C)C(=O)Nc2ccc(F)cc2)[C@@H](C)CN([C@@H](C)CO)C(=O)c2cc(NC(=O)Nc3ccc4c(c3)OCO4)ccc2O1 | inconclusive: -58.1%
O=C(NCCCN1CCN(c2ccc(F)cc2)CC1)NC12CC3CC(CC(C3)C1)C2 | inconclusive: -51%
COc1cccc(CC2(CO)CCCN(Cc3cc(F)ccc3-n3cccn3)C2)c1 (stereo not given) | inconclusive: -58.1%
Cc1ccc2c(c1)sc1nncn12 | inactive: 20.3%
CCCn1c(N)c(C(=O)CN2CCN(S(=O)(=O)c3cccc(Cl)c3)CC2)c(=O)[nH]c1=O | inconclusive: -67.5%
C[C@H](NC(=O)COc1ccc(Cl)cc1)C(=O)N1CCC2(CC1)NCCc1[nH]cnc12 | inconclusive: -52.6%
COc1ccccc1CCNS(=O)(=O)c1cn(C)c(=O)n(C)c1=O | inconclusive: -53.1%
CC1C(=O)N(Cc2ccc([N+](=O)[O-])cc2)c2ccccc2N1C(=O)c1c(F)cccc1F (stereo not given) | active: -79.4%
Cc1cc(C)cc(NS(=O)(=O)c2ccc3c(c2)C(C)(C)C(=O)N3C)c1 | inactive: -2.91%
COc1ccc(S(=O)(=O)NC2CCN(Cc3ccccc3)CC2)cc1NC(C)=O | inactive: 8.31%
CC1CCCN(C(=O)CNC(=O)c2ccco2)C1 (stereo not given) | inconclusive: -63.1%
COc1cccc(CC(=O)NC2CCCN(Cc3ccc(Cl)cc3)C2)c1 (stereo not given) | inactive: 25.4%
O=C(Oc1ccc(N(Cc2cccs2)C2=NS(=O)(=O)c3ccccc32)cc1)c1ccc(Cl)cc1 | inconclusive: -68.2%
CC1CN(CC(O)COC(c2ccc(Cl)cc2)c2ccc(Cl)cc2)CC(C)O1 (stereo not given) | inconclusive: -52%

SMILES | activity change
COc1ccc(CCc2cc(OC)cc(=O)o2)cc1 | inactive: 0.577%
CC(C)CCn1cnc2c(cnn2-c2ccc(F)cc2)c1=O | active: -181%
CCN(CC)CCNCC(O)(c1ccc(Cl)cc1)c1ccc(Cl)cc1 | inconclusive: -56.4%
Cc1ccc(-n2cc(CN3CCC(O)(c4ccccn4)CC3)c(-c3ccc(F)cc3)n2)cc1 | inconclusive: -53.6%
CC(C)(C)NC(=O)C(c1cccnc1)N(C(=O)c1csnn1)c1ccccc1 (stereo not given) | inconclusive: -55%
CC(NC(=S)NC1CCCCC1)c1ccccc1 (stereo not given) | inconclusive: -57.9%
CCCCCn1c(N2CCN(Cc3ccccc3)CC2)nc2c1c(=O)[nH]c(=O)n2C | inconclusive: -59.4%
Cc1ccc2cc(CN(C)S(C)(=O)=O)c(=O)[nH]c2c1 | inactive: -2%
CCc1ccc(/C=C(\Cl)c2nc3cc(Cl)ccc3c(=O)[nH]2)cc1 | inconclusive: -58.9%
COc1ccc(CC2(CO)CCN(C(C)Cc3ccc(Cl)cc3)CC2)cc1 (stereo not given) | active: -93.2%
Cc1c(NS(=O)(=O)c2ccc(NCCN3CCOCC3)c([N+](=O)[O-])c2)c(=O)n(-c2ccccc2)n1C | inconclusive: -60.7%
COC(=O)C(NC(=O)c1cccnc1Cl)C(C)C (stereo not given) | active: -120%
O=C(NCc1ccccc1)c1c(Cl)nc(Cl)c(Cl)c1Cl | inactive: 6.24%
O=C(CNC(=S)N(Cc1ccccc1)Cc1cccnc1)NC1CCCC1 | inactive: 18.1%
OCC1(CCOc2ccccc2)CCN(Cc2cn[nH]c2-c2ccc(F)cc2)CC1 | inconclusive: -69.7%
Cc1c(C(=O)CN2CCN(c3ccccc3)CC2)c2ccccc2n1C | inconclusive: -52%
CCCc1c(C(=O)N/N=C/c2c[nH]c3ccccc23)nnn1-c1nonc1N | inconclusive: -53.1%
CCOc1ccc(NC(=O)CN2CCN(CC(=O)Nc3ccc(C(=O)OC)cc3)CC2)cc1 | inconclusive: -64.4%
CCCOc1cccc(-c2nn(-c3ccccc3)cc2/C=C(\C#N)C(=O)NCCCn2ccnc2)c1 | active: -187%
Cc1csc(=Nc2c(C)n(C)n(-c3ccccc3)c2=O)n1Cc1ccccc1 | inactive: 5.35% and inactive: 1.65%
c1ccc2c(c1)nc1n2CCS1 | inconclusive: -51%
N#Cc1c(N)n(CCNC(=O)c2ccc(Cl)cc2)c2nc3ccccc3nc12 | inactive: -1.93%

SMILES | activity change
CC12CC3CC1C(C(=O)O2)C3C(=O)O (stereo not given) | inconclusive: -51.5%
CCOc1ccccc1NC(=O)c1cc2ccccc2o1 | inconclusive: -67.5%
CCOc1ccc(-n2c(=S)sc3c(=O)n(-c4ccccc4)c(SCC(=O)O)nc32)cc1 | inactive: 13.5%
O=C(O)CC(c1cccc2ccccc12)N1Cc2ccccc2C1=O (stereo not given) | inconclusive: -57.6%
COc1cccc(C(=O)C2CCCN(Cc3cccn3-c3ccccn3)C2)c1 (stereo not given) | inconclusive: -69.6%
O=C(NCCc1ccccc1)C1CCN(S(=O)(=O)N2CCOCC2)CC1 | active: -104%
O=[N+]([O-])c1ccc(NCCCO)c(S(=O)(=O)N2CCOCC2)c1 | inconclusive: -68.3%
O=C(CSC1CCCCC1)N1CCN(c2ccccc2)CC1 | inactive: -0.72%
COc1ccc(N2C[C@H](Cc3ccccc3)[C@@H](CC(=O)Nc3ccccc3)C2=O)cc1 | inactive: -1.41%
Cc1ccc(/C=C2/SC(=S)N(CCCC(=O)Nc3ccc(O)cc3)C2=O)cc1 | inconclusive: -53.1%
CCC1(C(=O)O)NC(c2cc(OC)ccc2O)C2C(=O)N(Cc3ccccc3)C(=O)C21 (stereo not given) | inconclusive: -50.2%
Cc1nn(-c2ncccn2)c2c1C(=O)CC(C)(C)C2Br (stereo not given) | active: -151%
O=C(O)CCC(=O)NNC(=O)CCC1CCCCC1 | inconclusive: -53.3%
Cc1cc(N2CCN(S(=O)(=O)c3ccc(Cl)cc3)CC2)c2ccccc2n1 | inconclusive: -60.9%
Cc1cccc(NC(=S)N2CCN(Cc3ccccc3)CC2)c1C | inactive: -4.95%
COc1ccc(NC(=O)COC(=O)c2ccc(-n3cnnn3)cc2)c([N+](=O)[O-])c1 | inactive: 7.66%
CC(=O)c1ccc(NC(=O)COc2ccccc2C(=O)Nc2ccccc2)cc1 | inconclusive: -50.9%
Cc1nc(-c2nc(-c3c(C(=O)NNC(=O)Nc4ccccc4)noc3C)cs2)cs1 | active: -77.3%
CC1(C)Cc2cccc(OCC(=O)N3CCN(c4ccc([N+](=O)[O-])cc4)CC3)c2O1 | active: -90.2%
COc1ccc(CN2CCN(c3ncnc4scc(-c5ccc(F)cc5)c34)CC2)cc1 | inconclusive: -65.3%
COC(=O)/C=c1/s/c(=C(/C#N)C(=O)N2CCCCC2)n(-c2ccccc2)c1=O | inconclusive: -66.3%
CCOC(=O)CCCCC(=O)c1[nH]c(=O)[nH]c1Cn1cnc2ccccc21 | inactive: -9.27%

SMILES | activity change
O=C(Nc1nnc(SCC(=O)N2CCCCC2)s1)c1ccc(F)cc1F | active: -152%
COC(=O)C(CCCCNC(=O)c1ccc([N+](=O)[O-])cc1)NC(=O)c1ccc([N+](=O)[O-])cc1 (stereo not given) | inconclusive: -50%
COc1ccc(/C=C/C(=O)NCCc2ccc(S(N)(=O)=O)cc2)cc1 | inconclusive: -55.5%
CC(=O)Oc1ccc(/C=N/NS(=O)(=O)c2ccccc2)cc1 | inconclusive: -69.9%
CSCCC(NC(=O)c1ccc(Cl)cc1)C(=O)OCC(=O)Nc1ccc(C#N)cc1 (stereo not given) | inactive: -3.36%
COc1ccccc1NCCC(=O)OCC(=O)Nc1ccccc1Cl | active: -106%
Cc1ccccc1C(=O)Nc1ccc(N2CCCCCC2)cc1 | inconclusive: -68.7%
O=[N+]([O-])c1ccc(NC2CCN(Cc3ccccc3)CC2)c([N+](=O)[O-])c1 | active: -74.2%
Cc1ccc(C)c(NC(=O)COC(=O)c2cccc(S(=O)(=O)N3CCCCC3)c2)c1 | inconclusive: -64.4%
CCOC(=O)c1c(C)[nH]c(C)c1C(=O)COC(=O)/C=C/c1cccc(Cl)c1 | inconclusive: -54.6%
O=[N+]([O-])c1ccc(N2CCN(c3ccc([N+](=O)[O-])cc3CO)CC2)c(CO)c1 | inconclusive: -61.5%
CCNc1nc(C)c2cc(Br)c(=O)n(CC)c2n1 | inconclusive: -68.2%
COc1cccc(-c2cc(C(=O)NCC3CCCO3)c3cc(Br)cc(C)c3n2)c1 (stereo not given) | inconclusive: -51.6%
CCc1ccc(-c2ccc(SCC(=O)NC3CCCC3)nn2)cc1 | inconclusive: -56.4%
Cc1ccccc1Nc1c([N+](=O)[O-])cncc1[N+](=O)[O-] | inconclusive: -54.3%
CCC(C)n1c(S(=O)(=O)O)nc2ccccc21 (stereo not given) | active: -184%
CC(=O)Nc1ccc2c(COC(=O)CC3Sc4ccccc4NC3=O)cc(=O)oc2c1 (stereo not given) | inconclusive: -64.4%
CCc1ccc(Nc2ccc3nonc3c2[N+](=O)[O-])cc1 | active: -134%
Cc1ccc(CN2CCN(CC(=O)N=Nc3c(O)[nH]c4ccccc34)CC2)cc1 | inconclusive: -51%
